No constants are given. Whether binding was seen depends on the method and setting. In cells and extracts the contact can be indirect. Some results given as binding are weak or reduced against the parent protein; the word gives no strength. Tags and fused reporters may be left off the sequences shown.
How the values were obtained:
Assay in all cases: pull-down; GST-Sgs1 fragments on glutathione magnetic beads; 10 mg benzonase-treated yeast lysate with VSV-tagged Rad51, 120 min at room temperature; Rad51 buffer (50 mM Tris pH 7.5, 0.01% NP-40, 5 mM beta-glycerol phosphate, 2 mM magnesium acetate, 120 mM NaCl); western blot with antibodies against GST and VSV; only the target purified
[1] = target: T1, GST-Sgs1^647–1447 (S. cerevisiae) (UniProt P35187)
T1 sequence: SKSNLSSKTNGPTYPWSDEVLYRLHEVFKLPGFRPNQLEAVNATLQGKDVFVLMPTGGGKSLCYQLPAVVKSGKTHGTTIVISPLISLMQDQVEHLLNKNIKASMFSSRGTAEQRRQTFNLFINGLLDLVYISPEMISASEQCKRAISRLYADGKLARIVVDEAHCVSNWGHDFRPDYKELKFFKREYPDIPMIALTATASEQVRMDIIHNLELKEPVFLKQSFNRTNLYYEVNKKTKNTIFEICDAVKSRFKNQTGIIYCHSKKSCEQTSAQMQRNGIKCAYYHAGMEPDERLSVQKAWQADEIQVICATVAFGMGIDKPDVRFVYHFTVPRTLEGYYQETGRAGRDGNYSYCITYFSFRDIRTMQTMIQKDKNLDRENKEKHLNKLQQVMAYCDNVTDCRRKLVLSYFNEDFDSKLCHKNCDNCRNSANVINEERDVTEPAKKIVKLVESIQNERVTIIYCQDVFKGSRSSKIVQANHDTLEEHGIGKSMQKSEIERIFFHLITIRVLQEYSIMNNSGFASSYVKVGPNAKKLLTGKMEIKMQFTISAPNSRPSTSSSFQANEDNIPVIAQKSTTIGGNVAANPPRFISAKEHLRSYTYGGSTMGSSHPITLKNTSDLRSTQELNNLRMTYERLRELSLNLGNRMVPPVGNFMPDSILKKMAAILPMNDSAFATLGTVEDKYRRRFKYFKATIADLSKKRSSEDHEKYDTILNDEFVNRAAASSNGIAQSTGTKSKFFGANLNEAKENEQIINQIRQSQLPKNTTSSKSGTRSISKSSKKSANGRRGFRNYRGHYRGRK

Amino acid sequences for entries named in this document (tags omitted).
UniProt P25454: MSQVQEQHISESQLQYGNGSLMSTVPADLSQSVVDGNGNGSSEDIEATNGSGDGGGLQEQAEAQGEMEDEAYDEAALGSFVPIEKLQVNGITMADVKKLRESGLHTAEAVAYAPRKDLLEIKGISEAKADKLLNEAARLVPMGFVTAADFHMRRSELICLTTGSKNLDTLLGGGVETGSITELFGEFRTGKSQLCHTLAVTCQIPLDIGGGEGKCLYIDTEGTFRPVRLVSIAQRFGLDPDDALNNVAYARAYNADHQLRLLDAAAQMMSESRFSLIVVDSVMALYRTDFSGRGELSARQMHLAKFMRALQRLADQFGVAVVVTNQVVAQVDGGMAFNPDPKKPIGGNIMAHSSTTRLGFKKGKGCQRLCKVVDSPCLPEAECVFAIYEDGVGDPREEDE

[2] = target: T2, GST-Sgs1 fragment with 260 C-terminal residues deleted (S. cerevisiae) (UniProt P35187)
T2 sequence: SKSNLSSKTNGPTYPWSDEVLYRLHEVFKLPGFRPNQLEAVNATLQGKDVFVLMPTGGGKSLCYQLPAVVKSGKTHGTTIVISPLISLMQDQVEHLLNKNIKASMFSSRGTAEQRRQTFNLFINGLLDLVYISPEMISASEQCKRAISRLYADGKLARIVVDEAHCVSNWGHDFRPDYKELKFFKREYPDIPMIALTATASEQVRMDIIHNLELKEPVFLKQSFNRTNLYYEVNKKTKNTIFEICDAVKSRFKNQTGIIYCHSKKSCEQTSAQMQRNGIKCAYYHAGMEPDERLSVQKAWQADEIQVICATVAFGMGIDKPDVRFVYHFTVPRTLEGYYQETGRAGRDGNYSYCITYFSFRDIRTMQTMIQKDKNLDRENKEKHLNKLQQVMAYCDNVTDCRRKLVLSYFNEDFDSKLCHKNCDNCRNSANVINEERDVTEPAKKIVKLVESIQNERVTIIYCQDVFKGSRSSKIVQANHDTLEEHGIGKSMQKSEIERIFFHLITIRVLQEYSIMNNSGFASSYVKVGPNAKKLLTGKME

[3] = target: T3, GST-Sgs1 fragment with 240 C-terminal residues deleted (S. cerevisiae) (UniProt P35187)
T3 sequence: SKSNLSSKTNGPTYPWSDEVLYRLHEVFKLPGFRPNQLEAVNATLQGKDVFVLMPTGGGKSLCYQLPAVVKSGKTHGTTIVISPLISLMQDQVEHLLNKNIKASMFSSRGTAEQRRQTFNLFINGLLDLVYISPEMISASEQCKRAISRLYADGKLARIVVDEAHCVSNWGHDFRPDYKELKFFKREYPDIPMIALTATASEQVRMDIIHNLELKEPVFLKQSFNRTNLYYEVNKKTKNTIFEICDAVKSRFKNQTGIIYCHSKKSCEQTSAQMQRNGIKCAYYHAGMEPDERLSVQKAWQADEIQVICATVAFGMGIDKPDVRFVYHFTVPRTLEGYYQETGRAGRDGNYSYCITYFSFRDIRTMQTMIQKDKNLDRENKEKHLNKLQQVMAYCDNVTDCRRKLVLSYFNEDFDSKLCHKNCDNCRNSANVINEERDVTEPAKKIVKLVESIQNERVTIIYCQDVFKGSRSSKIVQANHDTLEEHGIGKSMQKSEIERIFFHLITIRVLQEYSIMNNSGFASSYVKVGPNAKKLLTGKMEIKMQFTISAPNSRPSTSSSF

binding [1]: binds
binding [2]: no binding
binding [3]: binds
Substance: Rad51-V5-3XVSV (from UniProt P25454 1-400)
